# From the supplement of paper PMC3334620
# Over roughly 33,000 sequences, “E-score (-0.5 to 0.5)” has its median near -0.0059; the highest 2% begin near 0.26. The list shows a part of the results.
# Biological target: T1, Cin5 (UniProt P40917)
# T1 sequence: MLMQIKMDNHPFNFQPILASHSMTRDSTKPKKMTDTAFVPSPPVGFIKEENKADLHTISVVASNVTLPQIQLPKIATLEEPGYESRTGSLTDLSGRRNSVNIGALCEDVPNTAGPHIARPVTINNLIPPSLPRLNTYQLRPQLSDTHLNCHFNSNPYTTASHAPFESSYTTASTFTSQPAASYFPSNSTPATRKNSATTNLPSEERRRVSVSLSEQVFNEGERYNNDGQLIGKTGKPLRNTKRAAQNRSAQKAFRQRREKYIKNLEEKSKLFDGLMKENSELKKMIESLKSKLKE
# Assay: PBM E-score (8-mer binding enrichment) (E-score (-0.5 to 0.5)); higher = stronger / more preferred TF binding
# Details: protein concentration: 100 nM; construct: GST-full length
# Method: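 Universal 'all 10-mer' protein binding microarrays (Agilent AMADID 015681) probed with GST-tagged S. cerevisiae TFs (full-length or DBD) made by in vitro transcription/translation (PURExpress), about 100-200 nM. Bound TF was detected with fluorescent anti-GST. Each ungapped 8-mer (which stands for itself and its reverse complement) is scored by the PBM enrichment score (E-score), a modified Wilcoxon-Mann-Whitney statistic from -0.5 to +0.5, computed with the Universal PBM Analysis Suite. Scale: above 0.35 generally sequence-specific binding.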
row,Sequence,PBM E-score
1,AGCGCCGG,-0.177
2,GGCTAAGA,-0.0331
3,CGTACACC,-0.071
4,GCCCCGAC,-0.0599
5,GGTTATGA,0.0558
6,AAGCTCCC,-0.214
7,CAGGCTCA,-0.0177
8,GGTGATCA,-0.0401
9,TGTGGGAA,-0.058
10,CCGACCTC,-0.235
11,AATCATTG,0.207
12,CTCAGACA,0.0313
13,AGCCTGAT,-0.0901
14,GGCGTCGA,0.0474
15,ATCGTCCA,-0.142
16,ATACGCAC,0.0197
17,ACTAATGC,0.191
18,AAGAACTG,-0.0845
19,ACGCCGTC,0.0294
20,CCCCACGG,-0.153
21,GGATTTAC,0.0769
22,CTCAGATC,0.0619
23,GAAGGTAA,0.0631
24,GAATCTCA,-0.0979
25,CTCTTCTA,-0.0775

row,Sequence,PBM E-score
1,ACGTGCGG,0.037
2,ATATCCTA,0.0388
3,GAGAAGGA,-0.0759
4,CACTATAG,0.0419
5,CCACGACC,-0.122
6,GCTACATA,0.0756
7,AGCTACTC,-0.0316
8,AGCTCGGC,-0.036
9,AAAATGGG,-0.0874
10,CACATTAC,0.255
11,AGCCACTA,-0.00233
12,CGGTCATC,0.0195
13,GTAAAGCA,0.124
14,ATAAATAC,0.279
15,CCGGGCCA,-0.245
16,GACCCGTA,-0.178
17,CTACTAAA,-0.0525
18,CTTGGTTA,0.133
19,CTGAGTGC,-0.0995
20,GCGGGCGA,0.0565
21,AAGTTTTG,0.149
22,CGAAACGA,-0.00691
23,CAGTCGGA,-0.146
24,ATAGATGC,0.0293
25,AGATCTAC,0.121

row,Sequence,PBM E-score
1,TATGATGA,0.176
2,GTCAATAA,0.0365
3,ACCTTATG,-0.00391
4,CGCTACAA,0.0999
5,CGGAGATC,-0.0902
6,CAACTCTA,-0.0843
7,AATGCTAG,-0.0233
8,AGTTCGCC,-0.023
9,ATGTGGCA,-0.0905
10,CGGACGGC,-0.115
11,AAGCGATA,0.0391
12,AAGTAATG,0.184
13,CCTTTACC,-0.224
14,CGATTGCG,0.0141
15,CTGCGCCC,-0.208
16,ACTTGATA,0.209
17,GTTATAAA,0.198
18,CTCACAGA,-0.101
19,ATGTAGTG,0.132
20,AGTTGCAG,0.0134
21,AAGACTTG,-0.0583
22,GTTAGTAA,0.111
23,AGTGGTGA,-0.0582
24,AGCCATAG,-0.141
25,CCGGACGC,0.00937

row,Sequence,PBM E-score
1,ACAAAACA,0.156
2,CTTCCCCC,-0.394
3,ATGCATAC,0.223
4,ATGAAAGA,0.122
5,CATGCCAA,0.0522
6,TTACTCAA,0.148
7,AACTCCCG,0.00321
8,ACTCGGCC,-0.0935
9,GAGCCATC,-0.106
10,CCCTCCCG,-0.257
11,CCACGAAA,-0.0837
12,CGACTCCG,-0.18
13,TGGGCAAA,-0.0173
14,ACGCGTTC,-0.012
15,AAATAATC,0.17
16,CTAAAATA,0.107
17,AAAGCGCA,-0.0252
18,CAGGGAGC,-0.289
19,GAGGAGAA,-0.316
20,CATAACTA,0.109
21,CTTAGCCA,0.0934
22,CGGGTACG,-0.281
23,CTCAGTGC,-0.0828
24,CGCACAAG,-0.0688
25,CAGAGCTA,-0.331

row,Sequence,PBM E-score
1,AAAAGATT,-0.0107
2,GGTGCCTA,-0.127
3,CAATACAA,0.308
4,CACATTTC,0.152
5,AGTAACAC,0.163
6,CTCGGGAA,0.0007
7,CTAGCGCA,-0.0573
8,CCAGACTA,-0.0111
9,TACATGTA,0.229
10,CCCCCCAC,-0.478
11,CCAATTAG,0.176
12,ATGGGACC,0.0185
13,CCCTAAAA,-0.15
14,GTCGGCCA,-0.189
15,ACCAAGCG,-0.0401
16,CCGATCAA,-0.0326
17,GGATGAAC,0.0448
18,CCTAGGAG,-0.232
19,TAATAGTA,0.228
20,ATCGGAAG,0.0974
21,GGGCGGAA,0.175
22,AACGGACT,-0.241
23,ACGGCACA,-0.144
24,ACATCCAA,0.0835
25,GTCCTCCA,-0.157

row,Sequence,PBM E-score
1,GTTTATTA,0.215
2,GGTAGCAA,-0.117
3,AGTTAGAC,0.0146
4,ATAGATCA,0.173
5,CTGGCAAC,-0.158
6,AGTCAGAA,0.0132
7,TATCTAGA,-0.106
8,ATTGTTGA,0.149
9,AAGTAGTG,0.138
10,ATAACACA,0.229
11,ATGCAAGC,0.0531
12,GAAGCAGC,-0.162
13,AGGTAGCC,-0.088
14,CATCGGCC,-0.17
15,CATATTGC,0.0152
16,ACAGCCTG,-0.011
17,CGGCACAC,-0.0518
18,CATGATGG,-0.00846
19,ATTTATAA,0.299
20,ACGCTACT,-0.0514
21,CAGGCAGC,-0.109
22,AGATCATC,0.0713
23,ATCTAATC,0.306
24,CTTGAGTA,0.0776
25,ACAGAAGG,-0.212

row,Sequence,PBM E-score
1,CTAGTAAG,0.116
2,AAGGAGAA,0.0927
3,ATACTCTG,0.137
4,ATAGTTGA,0.121
5,CCGGATGC,-0.0297
6,ACCCAACA,0.00467
7,CTTGATTC,0.122
8,ACGAAGAG,-0.0165
9,AGAGCTAA,-0.159
10,CGTGCAAA,0.00551
11,GGCAAACA,0.123
12,CCAGATCC,-0.169
13,ACTAATTG,0.175
14,CCCATTAG,-0.353
15,ATATGAGA,0.106
16,ACGTCGAG,-0.0874
17,GAACGTGC,-0.213
18,GAGAGTGC,-0.0979
19,CGACGTAC,-0.00505
20,CGTAGACG,-0.217
21,CGCCCTAC,-0.331
22,AACAACTC,-0.0352

# Random excerpt: 4 entries already listed
row,Sequence,PBM E-score
5,CCGGATGC,-0.0297
11,CCAATTAG,0.176
15,CATATTGC,0.0152
1,ACAAAACA,0.156

# Some of the entries above, set out differently.
row	Sequence	PBM E-score
20	AGTTGCAG	0.0134
21	AAGACTTG	-0.0583
22	GTTAGTAA	0.111
23	AGTGGTGA	-0.0582
24	AGCCATAG	-0.141

# Reformatted: results already given.
row | Sequence | PBM E-score
18 | CTTGGTTA | 0.133
1 | CTAGTAAG | 0.116
